According to patent publication US20110124634A1, “BIOACTIVE COMPOUNDS FOR TREATMENT OF CANCER AND NEURODEGENERATIVE DISEASES” (PONIARD PHARMACEUTICALS, INC., priority 2008, published 2011):
For at least one compound, name, drawing or mass did not settle the structure.

Test system: HSP90
Assay: Fluorescence polarization (FP) assay for affinity to HSP90
Type: binding
Conditions: Table 1, series I; means of three independent experiments
Procedure: Most of the compounds synthesized were evaluated for their ability to induce degradation of the HSP90 client protein Her2 in SKBR-3 cells. Selected compounds were evaluated in a fluorescence polarization (FP) assay for their affinity to HSP90.

For `COc1c(C)cnc(CN2CC(=O)N(CCN3CCCC3)c3c(Cl)nc(N)nc32)c1C` [Example I-7], which IC50 is on record?
The IC50 was 660 nM.
